The record followed here is PMC4588886, “A link between magnesium-chelatase H subunit and sucrose nonfermenting 1 (SNF1)-related protein kinase SnRK2.6/OST1 in Arabidopsis guard cell signalling in response to abscisic acid” (Journal of Experimental Botany, 2015).

Results are given in words; binding and its absence hold for the method and conditions named. In cells and extracts the contact can be indirect. Some entries that bind do so weakly or less than the wild type. Sequences can lack the tags named with a protein.

The target in the assay is T1, Myc-tagged OST1 protein (transgenic Arabidopsis) (Arabidopsis thaliana) (UniProt Q940H6).
T1 sequence: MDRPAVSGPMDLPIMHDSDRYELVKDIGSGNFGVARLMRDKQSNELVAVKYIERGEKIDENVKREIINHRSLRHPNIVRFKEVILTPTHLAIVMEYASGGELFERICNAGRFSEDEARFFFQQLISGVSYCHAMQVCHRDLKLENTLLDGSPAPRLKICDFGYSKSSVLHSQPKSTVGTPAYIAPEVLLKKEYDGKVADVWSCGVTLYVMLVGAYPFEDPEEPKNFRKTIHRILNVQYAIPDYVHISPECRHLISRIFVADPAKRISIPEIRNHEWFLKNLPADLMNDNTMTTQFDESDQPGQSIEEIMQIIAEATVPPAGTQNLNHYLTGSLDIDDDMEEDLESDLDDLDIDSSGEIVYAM
The experiment in a line: co-IP; total protein of Myc-tagged OST1 over-expression Arabidopsis lines; immunoprecipitation with anti-Myc-tag antibody, blot with anti-ABAR serum; pre-immune serum as control.

B1: ABAR protein (endogenous, Arabidopsis total protein) (protein, UniProt Q9FNB0 50-1381)
chain: AVSGNGLFTQTNPEVRRIVPIKRDNVPTVKIVYVVLEAQYQSSLSEAVQSLNKTSRFASYEVVGYLVEELRDKNTYNNFCEDLKDANIFIGSLIFVEELAIKVKDAVEKERDRMDAVLVFPSMPEVMRLNKLGSFSMSQLGQSKSPFFQLFKRKKQGSAGFADSMLKLVRTLPKVLKYLPSDKAQDARLYILSLQFWLGGSPDNLQNFVKMISGSYVPALKGVKIEYSDPVLFLDTGIWHPLAPTMYDDVKEYWNWYDTRRDTNDSLKRKDATVVGLVLQRSHIVTGDDSHYVAVIMELEARGAKVVPIFAGGLDFSGPVEKYFVDPVSKQPIVNSAVSLTGFALVGGPARQDHPRAIEALKKLDVPYLVAVPLVFQTTEEWLNSTLGLHPIQVALQVALPELDGAMEPIVFAGRDPRTGKSHALHKRVEQLCIRAIRWGELKRKTKAEKKLAITVFSFPPDKGNVGTAAYLNVFASIFSVLRDLKRDGYNVEGLPENAETLIEEIIHDKEAQFSSPNLNVAYKMGVREYQDLTPYANALEENWGKPPGNLNSDGENLLVYGKAYGNVFIGVQPTFGYEGDPMRLLFSKSASPHHGFAAYYSYVEKIFKADAVLHFGTHGSLEFMPGKQVGMSDACFPDSLIGNIPNVYYYAANNPSEATIAKRRSYANTISYLTPPAENAGLYKGLKQLSELISSYQSLKDTGRGPQIVSSIISTAKQCNLDKDVDLPDEGLELSPKDRDSVVGKVYSKIMEIESRLLPCGLHVIGEPPSAMEAVATLVNIAALDRPEDEISALPSILAECVGREIEDVYRGSDKGILSDVELLKEITDASRGAVSAFVEKTTNSKGQVVDVSDKLTSLLGFGINEPWVEYLSNTKFYRANRDKLRTVFGFLGECLKLVVMDNELGSLMQALEGKYVEPGPGGDPIRNPKVLPTGKNIHALDPQAIPTTAAMASAKIVVERLVERQKLENEGKYPETIALVLWGTDNIKTYGESLGQVLWMIGVRPIADTFGRVNRVEPVSLEELGRPRIDVVVNCSGVFRDLFINQMNLLDRAIKMVAELDEPVEQNFVRKHALEQAEALGIDIREAATRVFSNASGSYSANISLAVENSSWNDEKQLQDMYLSRKSFAFDSDAPGAGMAEKKQVFEMALSTAEVTFQNLDSSEISLTDVSHYFDSDPTNLVQSLRKDKKKPSSYIADTTTANAQVRTLSETVRLDARTKLLNPKWYEGMMSSGYEGVREIEKRLSNTVGWSATSGQVDNWVYEEANSTFIQDEEMLNRLMNTNPNSFRKMLQTFLEANGRGYWDTSAENIEKLKELYSQVEDKIEGIDR
Take B1: the binding result is “binds”.
